This is an account of results in the supplement of paper PMC11348887.

Where a name gives a salt, the structure may show the parent alone. The list shows a part of the results. Most values lie at the level of the controls, where differences are scatter.

The test system of the first assay is hPSC-derived cortical neurons (WA09). The experiment in a line: nucleus area z-score vs screen plate; higher = larger nuclei (more mature). The following applies: 5 µM; treatment: days 7-14 after plating, readout day 21.
As for `O=c1c(O)c(-c2ccc(O)c(O)c2)oc2cc(O)ccc12` [Fisetin], the nucleus area z-score was found to be 0.526. Same read-out and setting: then `CC(C)(Oc1ccc(CCNC(=O)c2ccc(Cl)cc2)cc1)C(=O)O` [Bezafibrate], with 0.456; and `COC(=O)C1=C(C)NC(C)=C(C(=O)OC2CCCN(Cc3ccccc3)C2)C1c1cccc([N+](=O)[O-])c1` (stereo not given) [Benidipine HCl], with -6.04.

For `CN(C)[C@@H]1C(O)=C(C(N)=O)C(=O)[C@@]2(O)C(O)=C3C(=O)c4c(O)cccc4[C@@](C)(O)[C@H]3[C@H](O)[C@@H]12` [Oxytetracycline Dihydrate], the nucleus area z-score is -0.589. `CCn1cc(C(=O)O)c(=O)c2cc(F)c(N3CCNCC3)cc21` [Norfloxacin]: the nucleus area z-score is 0.494. Consider `c1ccc2c(c1)CCCC2C1=NCCN1` (stereo not given) [Tetrahydrozoline HCl], for which the nucleus area z-score is -1.84.

The test system is the same in another assay. Briefly: total neurite length per nucleus (MAP2) z-score; higher = more neurite growth. Particulars: 5 µM; treatment: days 7-14 after plating, readout day 21.
As to `CC[C@]1(O)C[C@H]2CN(CCc3c([nH]c4ccccc34)[C@@](C(=O)OC)(c3cc4c(cc3OC)N(C=O)[C@H]3[C@@](O)(C(=O)OC)[C@H](OC(C)=O)[C@]5(CC)C=CCN6CC[C@]43[C@@H]65)C2)C1` [Vincristine], the “total neurite length per nucleus (z-score)” value was -2.54.

Turning to `CC(=O)OCC(=O)[C@@]1(O)[C@H](C)C[C@H]2[C@@H]3CCC4=CC(=O)C=C[C@]4(C)[C@@]3(F)[C@@H](O)C[C@@]21C` [Dexamethasone Acetate], the “total neurite length per nucleus (z-score)” value was -0.759. As to `CCCCCCCCCCCCCCCCn1cc[n+](Cc2ccccc2)c1C`, the “total neurite length per nucleus (z-score)” value was -4.76. As to `NC1=N[C@@]2(c3cc(NC(=O)c4ccc(F)cn4)ccc3F)COC[C@H]2CS1`, the “total neurite length per nucleus (z-score)” value was -0.459.

Regarding `O=C(Nc1cccc2cccnc12)c1ccc(N2C(=O)[C@@H]3[C@H](C2=O)[C@@H]2C=C[C@H]3C2)cc1` [IWR-1-endo], the “total neurite length per nucleus (z-score)” value is -0.355.

As for `CC(C)(C)C(=O)C(Oc1ccc(Cl)cc1)n1ccnc1` (stereo not given) [Climbazole], the “total neurite length per nucleus (z-score)” value was found to be 1.43. On the same count and under the same terms, then `O=C1Nc2ccc(I)cc2/C1=C/c1cc(Br)c(O)c(Br)c1`, with -0.28. As to `COc1ccc(/C=C\c2cc(OC)c(OC)c(OC)c2)cc1O` [Combretastatin A4], the “total neurite length per nucleus (z-score)” value was -4.37.

Consider `CN(c1ccccc1CNc1nc(Nc2ccc3c(c2)CC(=O)N3)ncc1C(F)(F)F)S(C)(=O)=O`, for which the “total neurite length per nucleus (z-score)” value was -0.0854.

With `COc1ccc(C2=N[C@H](c3ccc(Cl)cc3)[C@H](c3ccc(Cl)cc3)N2C(=O)N2CCNC(=O)C2)c(OC(C)C)c1` [Nutlin-3b], the “total neurite length per nucleus (z-score)” value stood at 0.989. As for `OCCOc1ccc(/C(=C(/CCCl)c2ccccc2)c2ccccc2)cc1` [Ospemifene], the “total neurite length per nucleus (z-score)” value was 0.316. Consider `Cc1ccccc1CN1C2=NCCN2C(=O)C2=C1CCN(Cc1ccccc1)C2` [TIC10 Analogue], for which the “total neurite length per nucleus (z-score)” value worked out at 1.61.

On to `CNC[C@H](O)[C@@H](O)[C@H](O)[C@H](O)CO` [Meglumine], for which the “total neurite length per nucleus (z-score)” value amounted to 1.64. For `Cc1c(C)c2c(c(C)c1O)CC[C@@](C)(CCC[C@H](C)CCC[C@H](C)CCCC(C)C)O2` [Vitamin E], the “total neurite length per nucleus (z-score)” value is -0.141. Regarding `COc1ccnc2[nH]cc(C(=O)C(=O)N3CCN(C(=O)c4ccccc4)C[C@H]3C)c12`, the “total neurite length per nucleus (z-score)” value is 0.136. As for `Cc1cc(Nc2ccc(NC(=O)c3ccc(Nc4ccnc5ccccc45)cc3)cc2)nc(N)n1`, the “total neurite length per nucleus (z-score)” value was -3.74. Regarding `CCC(=O)OCC(=O)[C@@]1(OC(=O)CC)[C@@H](C)C[C@H]2[C@@H]3CCC4=CC(=O)C=C[C@]4(C)[C@@]3(Cl)[C@@H](O)C[C@@]21C` [Beclomethasone dipropionate], the “total neurite length per nucleus (z-score)” value is -0.86. With `CN(C)[C@@H]1C(O)=C(C(N)=O)C(=O)[C@@]2(O)C(O)=C3C(=O)c4c(O)cccc4[C@@](C)(O)[C@H]3C[C@@H]12` [Tetracycline HCl], the “total neurite length per nucleus (z-score)” value came out at 0.471. Consider `CCC[C@@H]1C[C@@H](C(=O)N[C@@H]([C@H]2O[C@H](SC)[C@H](OP(=O)(O)O)[C@@H](O)[C@H]2O)[C@H](C)Cl)N(C)C1` [Clindamycin Phosphate], for which the “total neurite length per nucleus (z-score)” value came out at 0.813. As to `O=S(=O)(NCCNC/C=C/c1ccc(Br)cc1)c1cccc2cnccc12`, the “total neurite length per nucleus (z-score)” value worked out at 0.84. As for `O=C(O)c1cc2cccc([N+](=O)[O-])c2[nH]1`, the “total neurite length per nucleus (z-score)” value was -0.0354. Turning to `CNC1CCC(N(Cc2cccc(-c3ccncc3)c2)C(=O)c2sc3ccccc3c2Cl)CC1` (stereo not given) [Smoothened Agonist (SAG) HCl], the “total neurite length per nucleus (z-score)” value is -0.39. `Cc1ccc(Cl)cc1N(CC(=O)Nc1c(F)cccc1F)S(C)(=O)=O`: the “total neurite length per nucleus (z-score)” value was -0.589. Regarding `CC(C)Oc1ccc(-c2nc(-c3cccc4c3CC[C@@H]4NCCO)no2)cc1C#N` [Ozanimod (RPC1063)], the “total neurite length per nucleus (z-score)” value was found to be 0.547. Consider `O=c1c(-c2ccc(O)cc2)coc2cc(O)ccc12` [Daidzein], for which the “total neurite length per nucleus (z-score)” value was -0.472.

Turning to `Nc1nc(CC(=O)Nc2ccc(CCNC[C@H](O)c3ccccc3)cc2)cs1` [Mirabegron], the “total neurite length per nucleus (z-score)” value amounted to 0.302. On to `Cc1ccnc2c1NC(=O)c1cccnc1N2C1CC1` [Nevirapine], for which the “total neurite length per nucleus (z-score)” value was 0.796. In the case of `Cc1ccsc1C(=CCCN1CCC[C@@H](C(=O)O)C1)c1sccc1C` [Tiagabine], the “total neurite length per nucleus (z-score)” value was 0.532. Same read-out and setting: then `Cc1cc(C)nc(NS(=O)(=O)c2ccc(NC(=S)NC(=O)COc3ccc(Br)cc3Cl)cc2)n1`, with 0.76; and `CCC[C@@H]1C[C@@H](C(=O)N[C@@H]([C@H]2O[C@H](SC)[C@H](O)[C@@H](O)[C@H]2O)[C@@H](C)O)N(C)C1` [Lincomycin HCl], with 0.61. Regarding `N[C@@H](CCC(=O)N[C@@H](CS)C(=O)NCC(=O)O)C(=O)O` [Glutathione], the “total neurite length per nucleus (z-score)” value stood at 0.483. As to `Cc1nc2c(O)cccc2c(=O)[nH]1`, the “total neurite length per nucleus (z-score)” value was -1.6. Still for that read-out and setting: then `CCN1CCN(Cc2ccc(-c3cc4c(N[C@H](C)c5ccccc5)ncnc4[nH]3)cc2)CC1`, with -0.0383; and `O=c1c(O)c(-c2ccc(O)c(O)c2)oc2cc(O)ccc12` [Fisetin], with 0.482; and `CC(C)(Oc1ccc(CCNC(=O)c2ccc(Cl)cc2)cc1)C(=O)O` [Bezafibrate], with -0.772. Same read-out and setting: then `COC(=O)C1=C(C)NC(C)=C(C(=O)OC2CCCN(Cc3ccccc3)C2)C1c1cccc([N+](=O)[O-])c1` (stereo not given) [Benidipine HCl], with -2.31; and `CN(C)[C@@H]1C(O)=C(C(N)=O)C(=O)[C@@]2(O)C(O)=C3C(=O)c4c(O)cccc4[C@@](C)(O)[C@H]3[C@H](O)[C@@H]12` [Oxytetracycline Dihydrate], with 2.12; and `CCn1cc(C(=O)O)c(=O)c2cc(F)c(N3CCNCC3)cc21` [Norfloxacin], with 0.131. Consider `c1ccc2c(c1)CCCC2C1=NCCN1` (stereo not given) [Tetrahydrozoline HCl], for which the “total neurite length per nucleus (z-score)” value is -0.201.
